In PubChem BioAssay AID1347423 (Functional Genomics Laboratory (NCATS/FGL), 2020):
The whole screen tested about 52,000 sequences, of which about 210 (0.4%) were called active.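 How the source made its calls: active means gene whose silencing raises cell survival under the drug, median off-target-corrected z-score across its silencing RNAs 2 or more; inactive means the rest.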 The list shows a part of the results.

Assay: Resistance to Poly (ADP-Ribose) Polymerase inhibitor: Gene Identification via Genome-wide siRNA Screen
Details: mouse BRCA2 R2336H ES cells, olaparib, CellTiter-Glo viability; stronger effect = higher value
Procedure, shortened: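 Mouse BRCA2 R2336H ES cells were reverse-transfected with siRNA (20 nM final), treated at 48 h with 500 nM olaparib, and read by CellTiter-Glo after 72 h. Scores: MAD-based z per siRNA, median per gene, seed off-target correction.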

Row | Sequence | z-score
1 | GGUCAAAAGACUGUACAUATT against MGC117751 | inactive: 0.354
2 | GGAAGAUUUCACAUCUCAGTT against Pdir | inactive: 1.82
3 | GGUACAUGAUCAAUUUAGATT against D10Bwg0791e | inactive: 1.47
4 | GGCUAAUGUAGUAAACCACTT against Olfr965 | inactive: -0.891
5 | GCUUUAACCUGGUUUAGUATT against Pdzx | inactive: 0.272
6 | GGAACUCAGGGAAUAUAUUTT against Mtnr1a | inactive: -1.64
7 | GCCUUUCUGAGGGAUUUUGTT against 2010003J03Rik | inactive: 0.486
8 | CCCUAAGUUACCUCUUUCGTT against Ndufs8 | inactive: 0.201
9 | CCACCUAAUUUCCUAGAUCTT against Gm604 | inactive: -0.727
10 | GGAUCUCAGAAGCUUAGUUTT against Sca7 | inactive: -0.489
11 | CAUUGGAAAGAAUGGCCUUTT against Olfr890 | inactive: 0.109
12 | GGGUGACAUGAUUUUAACUTT against Fbxo18 | inactive: 0.856
13 | GCUUAAGUGGAGGUCCCUUTT against AW125688 | inactive: -0.89
14 | GUAUGUUCAUAUGGUUUUCTT against 2900010J23Rik | inactive: -1.7
15 | CCGUCAUGACUUUGUUCUATT against Plcg1 | inactive: -0.455
16 | GAAAAAGGGUGACAAGACUTT against Nppc | inactive: 0.969
17 | CCCAGUUCACAUUAAAACATT against Tloc1 | inactive: 0.338
18 | GGGACAGAACUUAAAUGUATT against Mup4 | inactive: -0.696
19 | GGAUUGUAAUAAUGGAGCCTT against H2-M10.4 | inactive: -0.56
20 | CCUCGUGUUACUUUUACCCTT against Olfr13 | inactive: -0.0366
21 | GGAUGUAGAUGUUGGUUUUTT against Kcnj14 | inactive: 1.37
22 | GGAUUGCCCUGUUGUGGUGTT against Snx17 | inactive: 0.27
23 | CGGUAUUGGUCCAGAAGUGTT against Dte | inactive: -1.73
24 | GGACUCAAGAGAAAUUCAATT against Card15 | inactive: 2.32
25 | CGGUUAAAAGCCCUCAGCATT against Olfr592 | inactive: -1.24
26 | GCAUAAGGUGGUUAAUGACTT against Rps15a | inactive: 1.25

Exported as labelled records: entries from further up
GCUUUAACCUGGUUUAGUATT against Pdzx
  z-score: inactive: 0.272
GGAACUCAGGGAAUAUAUUTT against Mtnr1a
  z-score: inactive: -1.64
CAUUGGAAAGAAUGGCCUUTT against Olfr890
  z-score: inactive: 0.109

Remaining list, next part.

Row | Sequence | z-score
27 | CGAAGUUGUUGAGAACUCATT against Pcdhb18 | inactive: -0.681
28 | GCUUACUUGGUGCUCGUGUTT against 4832428D23Rik | inactive: -1.01
29 | GGUGAAGCUUCGAAUGACUTT against Slc25a10 | inactive: -0.596
30 | GGUCUGCUCAAUGCUAUCATT against Olfr918 | inactive: -2.24
31 | GGCUUCUAAGCACAAAGUATT against Ppp2r5a | inactive: -0.837
32 | GCAUAGGCUAGGUUAUUAUTT against Lep | inactive: 1.4
33 | GGCCAGCAUCCAUGUUUUATT against Cacng1 | inactive: -0.98
34 | GGCAAUAAAUAUCCAGAAATT against Crygn | inactive: -0.0657
35 | GGUAGAAGAAUUGUUUGUGTT against C130096D04Rik | inactive: 1.32
36 | GCUCUGAAAUGUCUCUCCATT against LOC547343 | inactive: 0.0138
37 | GGAGAGCUGGUGUUUUAGATT against Tnfrsf17 | inactive: -0.328
38 | CCCUCAAAGACCUGUACAUTT against Gm266 | inactive: -1.64
39 | CCGUUUUGAGAUCUGUUAATT against 4930465K10Rik | inactive: -0.756
40 | CCCUUGAUUAAGUGGAUUATT against Tgfa | inactive: -0.0563
41 | GGAAAUCCUGGAAAACAAATT against 1110030L07Rik | inactive: -0.492
42 | GGUGUUUUAAGAUUGAAUGTT against Cyr61 | inactive: 0.212
43 | GGAAAAGGAAGAAGAGGCATT against Zfpm1 | inactive: -0.71
44 | GCAUAGAAAGCAUAGGUCCTT against Mrgprc11 | inactive: 0.399
45 | CCCGAUAUAAUCAAGAAACTT against Pld3 | inactive: 0.531
46 | GGAUAAAAGAGAAGAGUGUTT against Glmn | inactive: 0.735
47 | GCCUUUUAACUUAUUCUUGTT against Hey2 | inactive: 1.36
48 | GGGACAAAACCUUGACAGUTT against V1rh5 | inactive: -0.551
49 | GCUCGUUGACAAGAAGAGUTT against BC018465 | inactive: -0.52
50 | GGUUCGGGUAAAUAGUUCCTT against BC030440 | inactive: -0.931
51 | GGUCCUAAACCACUUCAGCTT against Gtf2f1 | inactive: 0.454
52 | GGAAUGUCGAAUUGAUUGUTT against Klrb1d | inactive: 0.344

Row | Sequence | z-score
53 | GGAUGACCCACUGGUGACUTT against Gng8 | inactive: 0.175
54 | GGAAACAUCUGGACUCCACTT against Dhrs10 | inactive: -2.59
55 | GGGCAAUUAUCUUUGUUAUTT against Olfr589 | inactive: 0.296
56 | CCUAAACCAGUCUUUUCUCTT against 5033428A16Rik | inactive: 2.05
57 | GGUUAUCCAGAGAGAAGGATT against Asxl2 | inactive: -2.71
58 | GCCCAACCUAGAUGAACCUTT against E030010A14 | inactive: 0.109
59 | GGUUCCUCAAGAUCAUCAUTT against P2ry13 | inactive: 0.762
60 | CCUUAUUCUGGAAUACCUGTT against AF155546 | inactive: 1.25
61 | GGGAGAUCGAACAGAAUGGTT against C630016B22Rik | inactive: -2.33
62 | GGAAGACAUUACCAAGUCATT against Impa1 | inactive: -1.57
63 | CCCUUACAUACCAAAGAAATT against Pkp4 | inactive: -0.533
64 | GGUCUUUCUUCGAGGAGUCTT against 4930535E21Rik | inactive: 0.57
65 | GCAGCAUUAGUGACUUAAUTT against Mcph1 | inactive: -0.902
66 | AACAUCCAAACCCAAGAGATT against MGC118250 | inactive: 0.553
67 | GGGAAAUAAAGGUUAUGCCTT against 2810432D09Rik | inactive: 0.307
68 | GGCGACAGUUGUUUUUGUGTT against AU022726 | inactive: 0.641
69 | GCUUUUUGUGGAGCAUUUUTT against Olfr1261 | inactive: -2.45
70 | GGAUAACGAACAUUUCAUCTT against Ntrk2 | inactive: 0.601
71 | GGUAGGCUGUGUUUGUCGGTT against Poldip3 | inactive: -1.12
72 | GGCCCAUGUUUAUUUAUGGTT against Hsd3b6 | inactive: 0.00967
73 | GCCUUCUUACCUGUUAGACTT against Wbscr22 | inactive: -1.28
74 | GGAACACACACUCUGGAAUTT against 4933425O20Rik | inactive: 0.362
75 | CCUAUCUUAUGAUGACAUATT against 1700013E18Rik | inactive: -0.531
76 | CGACCAUCUUUACUUUAUCTT against Ick | inactive: 0.454
77 | GCUCACCUUCAGGUAAGCGTT against Gm185 | inactive: 0.547
78 | GGCUCAGAUGAUGAGCUUUTT against Hic2 | inactive: 0.941

Looked up one by one from the entries so far:
Row | Sequence | z-score
17 | CCCAGUUCACAUUAAAACATT against Tloc1 | inactive: 0.338
41 | GGAAAUCCUGGAAAACAAATT against 1110030L07Rik | inactive: -0.492

(list continues)

Row | Sequence | z-score
79 | GCAGAGUGACUUUGAAGCGTT against Tieg1 | inactive: 0.184
80 | GGACAAGUACUUCAUGAUCTT against Gosr2 | inactive: -0.103
81 | CGCAUAUCUAGAAUGGUUATT against 2810021J22Rik | inactive: 0.333
82 | GGAUAAGACAGUUCCUAGCTT against Tap1 | inactive: 0.292
83 | GGAUUCCCGUACAACCAACTT against 4933407P14Rik | inactive: 1.14
84 | CGAAUUAUCCAAACAAAUGTT against Shcbp1 | inactive: -0.236
85 | GGAACGUAUACCUAUACCCTT against Huwe1 | inactive: -0.698
86 | GGCUGCCUAUUAUGAGAAGTT against Acy3 | inactive: 0.307
87 | GCCACCAUUAGGACAAGAUTT against 4933409G03Rik | inactive: 2.43
88 | GGCAAAAAGGGAUGUUACCTT against Map1lc3b | inactive: -0.194
89 | GGGAAGAAGAAAAAGAUGATT against C230081A13Rik | inactive: -0.774
90 | GGAGUGUUGGGAGCAGGAATT against Tnni1 | inactive: -1.92
91 | GCCUUCAAGUAUUUGGAAGTT against Mllt2h | inactive: 1.62
92 | GGACGAUGGUUCCUGAAAATT against Snap91 | inactive: 0.94
93 | GGAAAUCACCAGAGCUGAUTT against Atp6v0a2 | inactive: 1.56
94 | GCCUGUUUUAUUGUGUGACTT against Gna13 | inactive: 0.429
95 | GGUGGUACGCAGACUAAAUTT against Ulk1 | inactive: -0.0686
96 | GGAGCUGAACCUGAGCUAUTT against Tlr9 | inactive: -0.0823
97 | GGAACUUUUUCAGAUGCAGTT against A930038C07Rik | inactive: 0.525
98 | GGAGAUGGCGAAAACUCACTT against Rrbp1 | inactive: -0.263
99 | GGUGGUGGAAUGCUAAAAATT against Gys1 | inactive: 3.03
100 | GGCCUUCAUUGAGAUGAACTT against Ptbp1 | inactive: 0.228
101 | GGCAAGGACUCCAAGGACATT against Wdrx1 | inactive: 0.22
102 | GGUCUGAGCUGUGAUUACATT against AU016977 | inactive: -0.757
103 | CCAGUUGUAUAUGGUGUAGTT against 0610025P10Rik | inactive: -2.1
104 | GGAAAUGGCACCAAUGUCATT against Slc25a24 | inactive: 0.224

2 entries from above, as a markdown table.

| Row | Sequence | z-score |
| --- | --- | --- |
| 89 | GGGAAGAAGAAAAAGAUGATT against C230081A13Rik | inactive: -0.774 |
| 94 | GCCUGUUUUAUUGUGUGACTT against Gna13 | inactive: 0.429 |
